Assay results: PubChem BioAssay (EPA / NIEHS)
Inconclusive results, whose numbers are uncertain, are shown with a selection of clear calls. Potencies of inconclusive entries are doubtful fits and often do not repeat. Calls of active or inactive are those of the source. How the source made its calls: active means hit-call score of the fitted dose curve at least 0.9, where 1 is the maximum; inconclusive means response in the unintended direction; inactive means score below 0.9.

The chains behind the UniProt entries cited, without tags or fusion partners. Where a name states a change or a piece, a line headed by the entry shows the natural chain unless it says otherwise.
UniProt Q01717: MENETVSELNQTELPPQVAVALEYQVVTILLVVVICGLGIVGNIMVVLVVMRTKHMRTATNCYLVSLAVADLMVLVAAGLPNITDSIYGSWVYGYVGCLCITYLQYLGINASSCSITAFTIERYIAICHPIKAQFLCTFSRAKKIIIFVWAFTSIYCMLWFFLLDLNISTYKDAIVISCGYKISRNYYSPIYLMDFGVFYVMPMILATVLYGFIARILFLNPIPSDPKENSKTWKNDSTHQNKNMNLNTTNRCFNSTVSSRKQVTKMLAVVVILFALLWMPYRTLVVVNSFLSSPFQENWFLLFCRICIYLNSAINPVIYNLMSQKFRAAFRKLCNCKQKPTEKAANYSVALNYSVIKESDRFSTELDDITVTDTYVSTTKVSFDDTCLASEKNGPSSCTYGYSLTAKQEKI

The compounds below were run against rat Thyrotropin Releasing Hormone Receptor (TRH), Trhr (gene 25570) (UniProt Q01717) (assay: NVS_GPCR_rTRH: NovaScreen (NVS) G Protein-Coupled Receptor Assay for rat Thyrotropin Releasing Hormone Receptor (TRH) (AID 2283329);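 further: hit means lower bound tracer signal versus DMSO baseline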).
In short: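 Test compounds are screened at 25 uM in duplicate against radioligand binding in rat forebrain membranes, with active pairs followed up over a concentration range. Detection uses filter-based radiodetection after a 4 h exposure.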

Compound | AC50 | outcome
C=C(C)C#N | inconclusive: 11400 nM | –
O=C(Cc1ccccc1)c1ccccc1 | inconclusive: 2.29 nM | –
CCC[CH2][Sn]([Cl])([Cl])[CH2]CCC | – | inactive
CC(C)=CC1C(C(=O)OCc2cccc(Oc3ccccc3)c2)C1(C)C (stereo not drawn) | inconclusive: 26.5 nM | –
CO[C@@H]1[C@H](OC(=O)NC(=O)CCl)CC[C@]2(CO2)[C@H]1[C@@]1(C)O[C@@H]1CC=C(C)C | inconclusive: 8000 nM | –
c1cc[n+]2c(c1)-c1cccc[n+]1CC2 | inconclusive: 804 nM | –
Cl/C=C/Cl | – | inactive
O=C(O)CF | inconclusive: 25000 nM | –
CC(C)c1ccc(O)cc1 | inconclusive: 49.1 nM | –
CCOc1cc(Oc2ccc(C(F)(F)F)cc2Cl)ccc1[N+](=O)[O-] | – | inactive
CCC(C)(NC(=O)c1cc(Cl)c(C)c(Cl)c1)C(=O)CCl (stereo not drawn) | inconclusive: 25100 nM | –
OCCCBr | – | inactive
CCC[CH2][Sn]([Cl])([Cl])[Cl] | inconclusive: 120 nM | –
Cc1ccc2ccccc2c1C | – | inactive
CC(C)(C)C(=O)C(Oc1ccc(Cl)cc1)n1cncn1 (stereo not drawn) | inconclusive: 341 nM | –
CCOC(=O)C(C)OC(=O)c1cc(Oc2ccc(C(F)(F)F)cc2Cl)ccc1[N+](=O)[O-] (stereo not drawn) | – | inactive
CCCCOCCOC(C)=O | inconclusive: 191 nM | –
CCC1(c2ccc(N)cc2)CCC(=O)NC1=O (stereo not drawn) | inconclusive: 25000 nM | –

A different layout for part of the listing above.
Compound,AC50,outcome
O=C(Cc1ccccc1)c1ccccc1,inconclusive: 2.29 nM,–
c1cc[n+]2c(c1)-c1cccc[n+]1CC2,inconclusive: 804 nM,–
